PubChem BioAssay AID652238, Broad Institute, 2013
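One siRNA at five doses; scrambled control at 100 nM; the deposited percent formula has misplaced brackets.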 Further read-outs or replicates are left out here. Reagent sequences are not shown.

Purpose: 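Target check: knock-down effect on ATP in cytokine-exposed insulin-secreting cells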
Cell system: rat INS-1E insulinoma beta cells
Reagent: siRNA against rat genes, 6.25 to 100 nM siRNA; scrambled control at 100 nM
Time to read-out: 72 h transfection, then 48 h cytokines (about 120 h total)
Conditions: cytokine mix: IL-1 beta 10 ng/mL, TNF-alpha 25 ng/mL, IFN-gamma 50 ng/mL, for 48 h
Detection: 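ATP measured by luminescence; 0% equals scrambled siRNA plus cytokines, 100% equals scrambled siRNA without cytokines, so values show protection against ATP loss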
Reading the numbers: ATP loss blocked, 100 nM and ATP loss blocked, 50 nM and ATP loss blocked, 25 nM and ATP loss blocked, 12.5 nM: higher = stronger protection from cytokine-induced ATP loss

| gene | ATP loss blocked, 100 nM (%) | ATP loss blocked, 50 nM (%) | ATP loss blocked, 25 nM (%) | ATP loss blocked, 12.5 nM (%) |
| --- | --- | --- | --- | --- |
| Usp9x | 85 | 89 | 80 | 78 |
